Measured values as given in paper PMC12431657, “Discovery and mechanistic insights of dibenzoylmethane as a broad spectrum inhibitor of coronavirus” (PLOS Pathogens, 2025).
Where two headings read alike, the source gives them in different places. Among all 3,300 compounds or so, about 60 (2%) showed an effect of 50% or more. Some of the results follow.

Test system: HCoV-OC43
Parameters: species or system RD; HTS, protection from HCoV-OC43 induced cell death, luminescent cell viability (CellCounting-Lite 2.0), inhibition rate
Conditions: 24 h post infection, 1 h compound pre-incubation, 10 µM, inhibitor

Compound	OC43 Inhibition rate [%]	OC43 Inhibition rate (OC43 Inhibition rate, 24 h) [%]
COc1cc2c(cc1O)CC[C@@H]1[C@@H]2CC[C@]2(C)[C@@H](O)CC[C@@H]12 [2-Methoxyestradiol]	-0.6	
CC1=CC(=O)CC(C)(C)C1=O [Ketoisophorone]	1.3	
C[C@@H]1O[C@@H](Oc2c(-c3ccc(O)c(O)c3)oc3cc(O)cc(O)c3c2=O)[C@H](O)[C@H](O)[C@H]1O [Quercitrin]	11.3	
C[C@@H]1O[C@@H](O[C@H]2[C@H](O[C@H]3CC[C@@]4(C)[C@@H](CC[C@]5(C)[C@@H]4CC=C4[C@@H]6CC(C)(C)CC[C@]6(C(=O)O[C@@H]6O[C@H](CO[C@@H]7O[C@H](CO)[C@@H](O)[C@H](O)[C@H]7O)[C@@H](O)[C@H](O)[C@H]6O)CC[C@]45C)[C@]3(C)CO)OC[C@H](O)[C@@H]2O)[C@H](O)[C@H](O[C@@H]2O[C@H](CO)[C@@H](O)[C@H](O)[C@H]2O)[C@H]1O [Macranthoidin A]	-0.3	
O=C1O[C@@H]2[C@@H](O)[C@H](O)[C@@H](CO)O[C@H]2c2c1cc(O)c(O)c2O [Norbergenin]	-0.8	
OC[C@H](O)C(O)[C@@H](O)CO [L-Arabinitol]	-0.9	
Cc1nc2ccccc2c(=O)[nH]1 [2-Methylquinazolin-4-ol]	-0.1	
C[C@@H]1CC[C@@]2(NC1)O[C@H]1C[C@H]3[C@@H]4CC=C5C[C@@H](O[C@@H]6O[C@H](CO)[C@@H](O[C@@H]7O[C@@H](C)[C@H](O)[C@@H](O)[C@H]7O)[C@H](O)[C@H]6O[C@@H]6O[C@@H](C)[C@H](O)[C@@H](O)[C@H]6O)CC[C@]5(C)[C@H]4CC[C@]3(C)[C@H]1[C@@H]2C [Solamargine]	-9.7	
O=c1cc(-c2cc(O)c(O)c(O)c2)oc2cc(O)cc(O)c12 [Tricetin]	4.4	
CCC/C=C1\OC(=O)C2=C1CC[C@H]1[C@H]3C=C4C(=O)O/C(=C\CCC)[C@@]4(CC3)[C@@H]21 [Levistolide A]	77.4	
CC1(C)OC(=O)C=C[C@]2(C)[C@H]3CC[C@@]4(C)[C@H](c5ccoc5)OC(=O)[C@H]5O[C@]54[C@]3(C)C(=O)C[C@@H]12 [Obacunone]	8.1	
C=C(C)[C@@H]1CCC2=CC(=O)C[C@@H](C)[C@]2(C)C1 [Nootkatone]	14.5	
CC(=O)CO [Hydroxyacetone]	-1	
CN[C@@H](C)[C@H]1[C@H](O)C[C@@]2(C)[C@@H]3CC[C@H]4C(C)(C)[C@@H](NC)CC[C@@]45C[C@@]35CC[C@]12C [Cyclovirobuxine D]	109.3	
O=C(O)c1cc(=O)c2cccc(O)c2[nH]1 [Xanthurenic acid]	-0.5	
C[C@]12C=CC(=O)C=C1CC[C@@H]1[C@@H]2[C@@H](O)C[C@@]2(C)[C@H]1CC[C@]2(O)C(=O)CO [Prednisolone]	-0.1	
C/C=C(/C)C(=O)O[C@H]1[C@@H](OC(=O)CC(C)C)c2c(ccc3ccc(=O)oc23)OC1(C)C [Praeruptorin E]	0	
COc1ccc(/C=C/C(=O)O)cc1OC [(E)-3,4-Dimethoxycinnamic acid]		-0.7

As a short view, some entries already given.
Compound	OC43 Inhibition rate [%]	OC43 Inhibition rate (OC43 Inhibition rate, 24 h) [%]
O=C(O)c1cc(=O)c2cccc(O)c2[nH]1 [Xanthurenic acid]	-0.5	
C[C@]12C=CC(=O)C=C1CC[C@@H]1[C@@H]2[C@@H](O)C[C@@]2(C)[C@H]1CC[C@]2(O)C(=O)CO [Prednisolone]	-0.1	
C/C=C(/C)C(=O)O[C@H]1[C@@H](OC(=O)CC(C)C)c2c(ccc3ccc(=O)oc23)OC1(C)C [Praeruptorin E]	0	

Following part.

Compound	OC43 Inhibition rate [%]	OC43 Inhibition rate (OC43 Inhibition rate, 24 h) [%]
COc1ccc([C@H]2OC[C@H]3[C@@H]2CO[C@@H]3c2ccc(OC)c(OC)c2)cc1OC [Eudesmin]		2.6
O=C1CC[C@H](C(=O)O)N1 [(R)-5-Oxopyrrolidine-2-carboxylic acid]	-0.2	
O=Cc1ccc(O[C@@H]2O[C@H](CO)[C@@H](O)[C@@H](O)[C@H]2O)cc1 [Helicid]	0.1	
O=c1c(O[C@@H]2OC[C@@H](O)[C@H](O)[C@H]2O)c(-c2ccc(O)c(O)c2)oc2cc(O)cc(O)c12 [Reynoutrin]	1.1	
C[C@@H]1O[C@@H](O[C@H]2[C@H](O[C@H]3CC[C@@]4(C)[C@@H](CC[C@]5(C)[C@@H]4CC=C4[C@@H]6CC(C)(C)CC[C@]6(C(=O)O)CC[C@]45C)[C@]3(C)CO)OC[C@H](O)[C@@H]2O)[C@H](O)[C@H](O[C@@H]2O[C@H](CO)[C@@H](O[C@@H]3O[C@H](CO)[C@@H](O)[C@H](O)[C@H]3O)[C@H](O)[C@H]2O)[C@H]1O [Macranthoside B]	-7.6	
O=C(O)c1cccc(O)c1 [3-Hydroxybenzoic acid]	2	
COC(=O)C1=COC(O[C@@H]2O[C@H](CO)[C@@H](O)[C@H](O)[C@H]2O)/C(=C/C(=O)O)C1CC(=O)OCCc1ccc(O)cc1 (some centres unmarked) [Ligustrosidic acid]	0.1	
C[N+](C)(C)CCOP(=O)(O)OP(=O)([O-])OC[C@H]1O[C@@H](n2ccc(N)nc2=O)[C@H](O)[C@@H]1O [Citicoline (sodium)]		3.4
CN1c2c(nc(N)[nH]c2=O)NCC1CNc1ccc(C(=O)N[C@@H](CCC(=O)O)C(=O)O)cc1 (some centres unmarked) [5-Methyltetrahydrofolic acid]	1.1	
OC[C@@H](O)[C@@H](O)CO [meso-Erythritol]	1	
CC[C@H]1OC(=O)C[C@@H](O)[C@H](C)[C@@H](O[C@@H]2O[C@H](C)[C@@H](O[C@H]3C[C@@](C)(O)[C@@H](O)[C@H](C)O3)[C@H](N(C)C)[C@H]2O)[C@@H](CC=O)C[C@@H](C)C(=O)/C=C/C(C)=C/[C@@H]1CO[C@@H]1O[C@H](C)[C@@H](O)[C@@H](OC)[C@H]1OC [Tylosin (tartrate)]		45.9
NC(CO)C(=O)O (racemic) [DL-Serine]	-0.6	
CCCCCCCCCCCCCCCCCC(=O)O [Stearic acid]	-0.8	
CC(=O)OC/C=C(C)/C=C/C=C(C)/C=C/C1=C(C)CCCC1(C)C [Retinyl acetate]	0.3	
NCCCC[C@H](N)C(=O)O [L-Lysine]		-0.1
O=c1c(O)c(-c2cc(O)c(O)c(O)c2)oc2cc(O)ccc12 [Robinetin]	0.2	
COc1ccc(-c2oc3c(CC=C(C)C)c(O)cc(O)c3c(=O)c2O[C@@H]2O[C@@H](C)[C@H](O)[C@@H](O)[C@H]2O)cc1 [Baohuoside I]	70.2	
